Source: US7741286B2 (ConjuChem Biotechnologies Inc., priority 1999, dated 2010)
One purity is given for all peptides; the source may state it once.

Assay: general procedure: Fmoc solid-phase peptide synthesis; Fmoc protected Rink Amide MBHA resin; HBTU in DMF with NMM activation
Conditions: whole synthesis, RP-HPLC mass spectrometry, Hewlett Packard LCMS-1100 with diode array detector and electro-spray ionization, scale 100 μmole

Substance | final LC-MS purity (2TFA) [%] | further results
(MPA)-Arg-Asn-Pro-Asp-Gly-Asp-Val-Gly-Gly-Pro-Trp-Ala-Tyr-Thr-Thr-Asn-Pro-Arg-Lys-Leu-Tyr-Asp-Tyr-NH2.3TFA |  | final LC-MS purity (3TFA): >95%
(MPA)-Arg-Asn-Pro-Asp-Gly-Asp-Val-Gly-Gly-Pro-Trp-NH2.TFA |  | final LC-MS purity (TFA): >95%
(MPA)-Arg-Lys-Leu-Tyr-Asp-Tyr-NH2.2TFA | >95 | 
(MPA)-Pro-Arg-Lys-Leu-Tyr-Asp-NH2.2TFA | >95 | 
(MPA-AEEA)-Arg-Asn-Pro-Asp-Gly-Asp-Val-Gly-Gly-Pro-Trp-NH2.TFA |  | final LC-MS purity (TFA): >95%
(MPA-AEEA)-Arg-Lys-Leu-Tyr-Asp-Tyr-NH2.2TFA | >95 | 
(MPA-AEEA)-Pro-Arg-Lys-Leu-Tyr-Asp-NH2.2TFA | >95 | 
